According to PMC5323046:
Results are given in words; binding and its absence hold for the method and conditions named. For some of these results: Binding seen in cells or lysates may run through a third protein. Some entries that bind do so weakly or less than the wild type. For some of these results: Where a sequence is shown, tags or fusion partners need not be part of it. Each block holds one molecule with its values, some of them ahead of it.

The chains behind the UniProt entries cited, without tags or fusion partners.
UniProt P51159: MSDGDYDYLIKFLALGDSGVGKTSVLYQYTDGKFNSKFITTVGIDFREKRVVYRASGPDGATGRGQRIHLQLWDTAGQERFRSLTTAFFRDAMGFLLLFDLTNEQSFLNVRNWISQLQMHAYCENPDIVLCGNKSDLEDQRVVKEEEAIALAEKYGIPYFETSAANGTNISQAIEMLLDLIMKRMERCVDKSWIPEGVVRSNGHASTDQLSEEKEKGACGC
UniProt Q8TDY2: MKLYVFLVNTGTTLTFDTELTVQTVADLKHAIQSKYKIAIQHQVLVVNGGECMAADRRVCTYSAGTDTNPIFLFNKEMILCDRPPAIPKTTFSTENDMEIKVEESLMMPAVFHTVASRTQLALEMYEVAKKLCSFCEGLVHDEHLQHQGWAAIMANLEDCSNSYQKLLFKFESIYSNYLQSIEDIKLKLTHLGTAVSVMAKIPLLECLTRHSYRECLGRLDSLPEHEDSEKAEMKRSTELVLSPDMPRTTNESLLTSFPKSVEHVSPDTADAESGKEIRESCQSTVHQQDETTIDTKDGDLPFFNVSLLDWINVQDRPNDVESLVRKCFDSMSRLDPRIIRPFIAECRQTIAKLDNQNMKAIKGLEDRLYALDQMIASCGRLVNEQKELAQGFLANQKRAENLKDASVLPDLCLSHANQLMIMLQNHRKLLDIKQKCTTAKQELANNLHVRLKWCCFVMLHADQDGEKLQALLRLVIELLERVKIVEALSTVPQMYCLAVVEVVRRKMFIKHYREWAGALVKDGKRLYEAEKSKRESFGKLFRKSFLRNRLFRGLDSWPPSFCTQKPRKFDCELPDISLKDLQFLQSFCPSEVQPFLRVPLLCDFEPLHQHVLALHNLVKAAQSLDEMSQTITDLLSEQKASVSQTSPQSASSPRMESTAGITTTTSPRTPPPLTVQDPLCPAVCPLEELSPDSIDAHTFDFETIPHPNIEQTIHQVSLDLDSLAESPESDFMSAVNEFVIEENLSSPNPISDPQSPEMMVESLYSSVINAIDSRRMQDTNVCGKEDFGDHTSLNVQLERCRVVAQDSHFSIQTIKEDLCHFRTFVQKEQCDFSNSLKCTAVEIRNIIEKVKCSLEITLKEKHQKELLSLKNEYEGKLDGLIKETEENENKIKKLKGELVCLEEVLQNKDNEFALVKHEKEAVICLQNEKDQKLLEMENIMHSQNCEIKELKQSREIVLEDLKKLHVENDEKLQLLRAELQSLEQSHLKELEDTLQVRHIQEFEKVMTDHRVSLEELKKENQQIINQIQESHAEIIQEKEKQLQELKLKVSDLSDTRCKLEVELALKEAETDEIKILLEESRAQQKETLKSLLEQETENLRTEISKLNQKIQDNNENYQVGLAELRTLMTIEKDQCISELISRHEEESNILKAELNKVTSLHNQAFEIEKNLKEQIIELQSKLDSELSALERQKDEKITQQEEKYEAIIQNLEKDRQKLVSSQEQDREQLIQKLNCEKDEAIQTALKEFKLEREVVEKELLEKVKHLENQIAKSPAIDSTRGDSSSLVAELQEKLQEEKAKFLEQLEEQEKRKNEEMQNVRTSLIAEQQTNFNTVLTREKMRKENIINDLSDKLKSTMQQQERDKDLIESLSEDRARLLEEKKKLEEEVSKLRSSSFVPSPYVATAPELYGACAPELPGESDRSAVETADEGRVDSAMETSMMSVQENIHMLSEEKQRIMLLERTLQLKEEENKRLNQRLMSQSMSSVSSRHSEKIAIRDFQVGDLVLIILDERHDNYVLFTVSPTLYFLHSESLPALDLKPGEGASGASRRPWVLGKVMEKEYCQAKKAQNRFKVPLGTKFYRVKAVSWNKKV
UniProt Q96BY7: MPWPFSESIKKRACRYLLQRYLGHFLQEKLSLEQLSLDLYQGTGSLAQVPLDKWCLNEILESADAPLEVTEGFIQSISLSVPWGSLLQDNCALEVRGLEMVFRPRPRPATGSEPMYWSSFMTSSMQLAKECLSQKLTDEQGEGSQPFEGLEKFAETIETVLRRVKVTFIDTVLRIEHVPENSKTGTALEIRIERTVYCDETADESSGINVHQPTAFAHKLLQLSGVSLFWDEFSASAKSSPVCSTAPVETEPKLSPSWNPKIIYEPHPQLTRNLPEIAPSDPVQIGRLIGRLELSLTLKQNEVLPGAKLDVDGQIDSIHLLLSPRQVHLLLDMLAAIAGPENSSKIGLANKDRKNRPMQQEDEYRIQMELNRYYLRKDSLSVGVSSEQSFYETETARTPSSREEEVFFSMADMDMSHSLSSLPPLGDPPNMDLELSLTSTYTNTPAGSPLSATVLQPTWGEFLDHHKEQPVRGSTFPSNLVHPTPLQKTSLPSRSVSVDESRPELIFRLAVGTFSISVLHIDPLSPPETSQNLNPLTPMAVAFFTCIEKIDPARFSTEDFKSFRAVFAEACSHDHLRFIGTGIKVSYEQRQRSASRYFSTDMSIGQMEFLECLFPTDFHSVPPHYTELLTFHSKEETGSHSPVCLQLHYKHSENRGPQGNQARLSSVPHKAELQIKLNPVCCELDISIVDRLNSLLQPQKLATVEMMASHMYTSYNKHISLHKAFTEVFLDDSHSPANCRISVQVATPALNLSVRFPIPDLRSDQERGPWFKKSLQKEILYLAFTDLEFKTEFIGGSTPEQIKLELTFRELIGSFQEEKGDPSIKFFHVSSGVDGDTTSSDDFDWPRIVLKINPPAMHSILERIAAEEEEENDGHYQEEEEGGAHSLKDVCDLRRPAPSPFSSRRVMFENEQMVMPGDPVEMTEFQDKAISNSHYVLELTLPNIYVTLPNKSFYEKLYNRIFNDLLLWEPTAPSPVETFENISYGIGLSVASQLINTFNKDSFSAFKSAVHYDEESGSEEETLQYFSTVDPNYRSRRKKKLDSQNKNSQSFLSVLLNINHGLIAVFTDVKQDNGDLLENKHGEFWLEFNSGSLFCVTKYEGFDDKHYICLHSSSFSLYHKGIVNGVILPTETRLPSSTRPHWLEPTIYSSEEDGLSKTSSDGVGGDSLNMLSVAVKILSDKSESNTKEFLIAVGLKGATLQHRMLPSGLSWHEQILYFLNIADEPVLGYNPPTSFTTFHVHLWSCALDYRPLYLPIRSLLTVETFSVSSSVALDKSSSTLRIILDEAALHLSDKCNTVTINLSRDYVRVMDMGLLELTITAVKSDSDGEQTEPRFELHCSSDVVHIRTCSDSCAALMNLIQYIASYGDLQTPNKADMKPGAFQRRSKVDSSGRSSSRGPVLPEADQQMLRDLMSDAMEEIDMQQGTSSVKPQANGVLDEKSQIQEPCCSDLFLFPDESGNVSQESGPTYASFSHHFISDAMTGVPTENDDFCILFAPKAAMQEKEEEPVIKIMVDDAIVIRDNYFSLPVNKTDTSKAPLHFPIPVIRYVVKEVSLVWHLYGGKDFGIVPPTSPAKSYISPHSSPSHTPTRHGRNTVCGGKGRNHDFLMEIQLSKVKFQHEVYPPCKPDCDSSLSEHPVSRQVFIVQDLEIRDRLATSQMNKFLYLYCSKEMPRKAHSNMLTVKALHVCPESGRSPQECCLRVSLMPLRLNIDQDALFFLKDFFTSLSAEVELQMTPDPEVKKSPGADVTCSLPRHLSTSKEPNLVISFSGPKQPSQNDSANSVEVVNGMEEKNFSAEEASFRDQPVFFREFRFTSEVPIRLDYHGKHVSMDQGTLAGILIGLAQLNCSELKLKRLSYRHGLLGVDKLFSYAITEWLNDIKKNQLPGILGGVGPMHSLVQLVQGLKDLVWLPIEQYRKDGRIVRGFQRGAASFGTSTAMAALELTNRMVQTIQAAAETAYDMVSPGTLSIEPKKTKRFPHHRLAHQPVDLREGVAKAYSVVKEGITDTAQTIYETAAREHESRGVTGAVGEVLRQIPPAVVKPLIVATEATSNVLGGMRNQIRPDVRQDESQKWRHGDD

Experiments:
[1] = molecular target: T1, HA-tagged SMCR8 fragment 701–937 (human) (UniProt Q8TEV9); experiment: co-IP; 293T cells transiently transfected with HA-tagged full length SMCR8 or fragments; HA-IP, SDS-PAGE, immunoblot of endogenous partners; blots quantified with ImageJ
T1 sequence: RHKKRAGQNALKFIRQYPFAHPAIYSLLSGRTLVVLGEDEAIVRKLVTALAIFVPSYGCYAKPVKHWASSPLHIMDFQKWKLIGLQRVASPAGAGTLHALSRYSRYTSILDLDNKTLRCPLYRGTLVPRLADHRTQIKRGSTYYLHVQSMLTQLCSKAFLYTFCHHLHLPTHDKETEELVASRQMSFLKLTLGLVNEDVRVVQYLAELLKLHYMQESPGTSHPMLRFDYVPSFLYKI

[2] = molecular target: T2, HA-tagged SMCR8 fragment 1–700 (human) (UniProt Q8TEV9); experiment: as above
T2 sequence: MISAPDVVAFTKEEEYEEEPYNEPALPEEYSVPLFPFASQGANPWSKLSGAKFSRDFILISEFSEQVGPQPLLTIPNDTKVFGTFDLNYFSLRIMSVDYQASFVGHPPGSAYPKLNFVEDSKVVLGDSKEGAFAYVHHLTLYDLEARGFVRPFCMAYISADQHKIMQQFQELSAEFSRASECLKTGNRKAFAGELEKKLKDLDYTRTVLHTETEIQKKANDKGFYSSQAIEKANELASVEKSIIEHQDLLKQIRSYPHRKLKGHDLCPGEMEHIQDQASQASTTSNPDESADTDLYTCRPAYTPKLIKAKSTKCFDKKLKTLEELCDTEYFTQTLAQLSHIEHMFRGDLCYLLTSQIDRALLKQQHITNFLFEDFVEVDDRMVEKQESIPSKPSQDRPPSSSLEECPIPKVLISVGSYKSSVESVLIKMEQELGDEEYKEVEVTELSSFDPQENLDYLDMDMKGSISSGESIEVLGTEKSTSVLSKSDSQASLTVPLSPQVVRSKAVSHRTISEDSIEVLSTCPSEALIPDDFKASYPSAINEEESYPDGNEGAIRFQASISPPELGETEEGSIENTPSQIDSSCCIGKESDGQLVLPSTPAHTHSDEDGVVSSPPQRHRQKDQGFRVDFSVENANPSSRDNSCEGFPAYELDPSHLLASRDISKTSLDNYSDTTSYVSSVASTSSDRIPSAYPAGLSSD

[3] = molecular target: T3, HA-tagged full-length SMCR8 (human) (UniProt Q8TEV9); experiment: as above
T3 sequence: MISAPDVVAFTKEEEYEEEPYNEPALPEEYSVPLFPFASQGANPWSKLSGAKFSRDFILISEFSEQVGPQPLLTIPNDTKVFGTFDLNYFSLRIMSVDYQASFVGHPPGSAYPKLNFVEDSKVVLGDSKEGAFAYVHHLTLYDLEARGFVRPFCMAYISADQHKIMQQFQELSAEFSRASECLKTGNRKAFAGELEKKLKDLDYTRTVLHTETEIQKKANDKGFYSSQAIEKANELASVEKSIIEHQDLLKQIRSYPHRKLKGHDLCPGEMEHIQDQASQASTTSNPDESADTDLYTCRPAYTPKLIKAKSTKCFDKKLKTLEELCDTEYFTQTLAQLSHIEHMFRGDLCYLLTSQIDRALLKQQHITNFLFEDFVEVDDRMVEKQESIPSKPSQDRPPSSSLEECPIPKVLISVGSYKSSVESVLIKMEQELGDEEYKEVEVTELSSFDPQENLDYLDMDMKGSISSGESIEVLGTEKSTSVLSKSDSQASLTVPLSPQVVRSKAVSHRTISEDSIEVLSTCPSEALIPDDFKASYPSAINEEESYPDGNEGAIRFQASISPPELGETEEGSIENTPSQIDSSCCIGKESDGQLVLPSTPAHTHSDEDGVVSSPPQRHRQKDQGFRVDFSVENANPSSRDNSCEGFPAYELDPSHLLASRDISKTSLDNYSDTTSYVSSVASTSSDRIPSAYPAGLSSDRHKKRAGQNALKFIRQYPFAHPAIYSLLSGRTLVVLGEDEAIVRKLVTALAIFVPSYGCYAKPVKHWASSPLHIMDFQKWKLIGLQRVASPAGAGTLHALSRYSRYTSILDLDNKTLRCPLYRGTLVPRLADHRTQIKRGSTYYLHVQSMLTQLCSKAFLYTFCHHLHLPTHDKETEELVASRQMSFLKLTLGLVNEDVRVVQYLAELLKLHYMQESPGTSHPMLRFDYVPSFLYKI

[4] = molecular target: T4, endogenous SMCR8 (human (endogenous in 293T)) (UniProt Q8TEV9); experiment: SEC; whole cell lysates of 293T cells (freeze-thaw cycles, 50 mM TRIS pH 7.5, 150 mM NaCl) on Superose 6 10/300 GL; fractions by SDS-PAGE and immunoblot
T4 sequence: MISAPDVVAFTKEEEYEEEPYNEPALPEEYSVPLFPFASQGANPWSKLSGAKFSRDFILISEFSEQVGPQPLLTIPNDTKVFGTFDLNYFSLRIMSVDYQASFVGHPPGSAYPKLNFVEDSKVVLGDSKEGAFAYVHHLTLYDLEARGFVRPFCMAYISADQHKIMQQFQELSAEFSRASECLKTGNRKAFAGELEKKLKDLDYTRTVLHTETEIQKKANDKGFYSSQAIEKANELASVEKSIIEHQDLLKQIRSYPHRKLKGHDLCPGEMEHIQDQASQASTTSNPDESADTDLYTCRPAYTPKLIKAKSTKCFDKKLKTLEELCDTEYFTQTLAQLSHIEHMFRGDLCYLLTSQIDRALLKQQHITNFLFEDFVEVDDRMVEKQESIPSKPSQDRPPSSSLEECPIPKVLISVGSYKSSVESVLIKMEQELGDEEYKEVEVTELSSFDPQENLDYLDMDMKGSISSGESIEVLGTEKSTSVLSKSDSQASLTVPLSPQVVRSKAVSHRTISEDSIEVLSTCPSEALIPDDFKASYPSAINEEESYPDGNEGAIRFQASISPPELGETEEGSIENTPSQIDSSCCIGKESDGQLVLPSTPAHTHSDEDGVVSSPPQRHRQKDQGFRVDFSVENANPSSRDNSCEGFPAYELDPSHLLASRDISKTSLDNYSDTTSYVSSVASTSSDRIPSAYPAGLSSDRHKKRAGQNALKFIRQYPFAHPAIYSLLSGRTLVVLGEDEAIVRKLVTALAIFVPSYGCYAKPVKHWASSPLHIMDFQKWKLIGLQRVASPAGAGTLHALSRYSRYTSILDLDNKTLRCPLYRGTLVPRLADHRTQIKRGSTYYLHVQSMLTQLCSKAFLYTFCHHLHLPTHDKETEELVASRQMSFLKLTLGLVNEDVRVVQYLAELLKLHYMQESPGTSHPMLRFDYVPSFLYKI

[5] = molecular target: T5, HA-tagged C9ORF72 (human) (UniProt Q96LT7); experiment: co-IP; HA-IP (anti-HA-agarose, overnight, 4°C, MCLB buffer) from 293T-REx cells inducibly expressing HA-tagged bait, empty cells (MOCK) as control; SDS-PAGE and immunoblot of endogenous partners; cells untreated, with DMSO or 250 nM Torin1 for 2 hr, or starved with EBSS for 2 hr
T5 sequence: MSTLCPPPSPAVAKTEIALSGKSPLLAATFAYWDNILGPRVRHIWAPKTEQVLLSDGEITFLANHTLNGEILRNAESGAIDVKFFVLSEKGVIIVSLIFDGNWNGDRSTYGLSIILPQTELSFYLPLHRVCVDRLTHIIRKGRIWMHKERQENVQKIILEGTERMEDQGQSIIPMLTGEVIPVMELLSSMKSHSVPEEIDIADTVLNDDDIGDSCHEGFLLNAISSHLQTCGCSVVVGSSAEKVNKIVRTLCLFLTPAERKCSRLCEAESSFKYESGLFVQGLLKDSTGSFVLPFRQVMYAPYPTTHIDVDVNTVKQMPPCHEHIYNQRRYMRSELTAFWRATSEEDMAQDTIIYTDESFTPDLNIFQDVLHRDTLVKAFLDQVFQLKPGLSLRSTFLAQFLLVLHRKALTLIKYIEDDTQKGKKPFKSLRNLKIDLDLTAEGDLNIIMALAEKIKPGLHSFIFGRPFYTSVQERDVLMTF

[6] = molecular target: T3, HA-tagged full-length SMCR8 (human); experiment: as above
[7] = molecular target: T4, endogenous SMCR8 (human (endogenous in 293T)); experiment: co-IP; endogenous IP with anti-SMCR8 (anti-IgG as control) from 293T lysate (MCLB), cells with sicon or SMCR8 siRNA for 72 hr; DMSO or 250 nM Torin1 for 2 hr; immunoblot
[8] = molecular target: T3, HA-tagged full-length SMCR8 (human); experiment: native gel or EMSA; HA-IP from 293T-REx cells inducibly expressing HA-tagged SMCR8, C9ORF72, ATG13 or ULK1, elution with HA peptide in PBS, Native PAGE (3-12% Bis-Tris), then immunoblot or in-gel digestion and mass spectrometry
[9] = molecular target: T5, HA-tagged C9ORF72 (human); experiment: co-IP; as a2, HA-C9ORF72 IP from fed (not starved) 293T-REx cells
[10] = molecular target: HA-tagged RAB27A (Ras-related protein Rab-27A) (human) (UniProt P51159); experiment: co-IP; HA-IP (anti-HA-agarose, overnight, 4°C, MCLB buffer) from 293T-REx cells inducibly expressing HA-tagged bait, empty cells (MOCK) as control; SDS-PAGE and immunoblot of endogenous partners; cells untreated, with DMSO or 250 nM Torin1 for 2 hr, or starved with EBSS for 2 hr

- binding [1]: no binding
- binding [2]: binds
- binding [3]: binds
- binding [4]: binds
- binding [5]: binds
- binding [6]: binds
- binding [7]: binds
- binding [8]: binds
- binding [9]: binds weakly
Molecule: endogenous FIP200/RB1CC1 (focal adhesion kinase interacting protein of 200 kDa/RB1 inducible coiled-coil1) (from UniProt Q8TDY2 1-1594)

- binding [10]: binds
Molecule: ATG2B (from UniProt Q96BY7 1-2078)

Second part, the molecule before the results:

B1: VMP1 (protein, UniProt Q96GC9 1-406)
chain: MAENGKNCDQRRVAMNKEHHNGNFTDPSSVNEKKRREREERQNIVLWRQPLITLQYFSLEILVILKEWTSKLWHRQSIVVSFLLLLAVLIATYYVEGVHQQYVQRIEKQFLLYAYWIGLGILSSVGLGTGLHTFLLYLGPHIASVTLAAYECNSVNFPEPPYPDQIICPDEEGTEGTISLWSIISKVRIEACMWGIGTAIGELPPYFMARAARLSGAEPDDEEYQEFEEMLEHAESAQDFASRAKLAVQKLVQKVGFFGILACASIPNPLFDLAGITCGHFLVPFWTFFGATLIGKAIIKMHIQKIFVIITFSKHIVEQMVAFIGAVPGIGPSLQKPFQEYLEAQRQKLHHKSEMGTPQGENWLSWMFEKLVVVMVCYFILSIINSMAQSYAKRIQQRLNSEEKTK
- binding [10]: binds

B2: endogenous WDR41 (protein, UniProt Q9HAD4 1-459)
chain: MLRWLIGGGREPQGLAEKSPLQTIGEEQTQNPYTELLVLKAHHDIVRFLVQLDDYRFASAGDDGIVVVWNAQTGEKLLELNGHTQKITAIITFPSLESCEEKNQLILTASADRTVIVWDGDTTRQVQRISCFQSTVKCLTVLQRLDVWLSGGNDLCVWNRKLDLLCKTSHLSDTGISALVEIPKNCVVAAVGKELIIFRLVAPTEGSLEWDILEVKRLLDHQDNILSLINVNDLSFVTGSHVGELIIWDALDWTMQAYERNFWDPSPQLDTQQEIKLCQKSNDISIHHFTCDEENVFAAVGRGLYVYSLQMKRVIACQKTAHDSNVLHVARLPNRQLISCSEDGSVRIWELREKQQLAAEPVPTGFFNMWGFGRVSKQASQPVKKQQENATSCSLELIGDLIGHSSSVEMFLYFEDHGLVTCSADHLIILWKNGERESGLRSLRLFQKLEENGDLYLAV
- binding [4]: binds
- binding [8]: binds
